Measured values taken from PubChem BioAssay AID248 (DTP/NCI, 2004).
The list is a part of this screen's results and no random one: it is rich in T/C values a quarter to a half above the control, in often repeated tests (any T/C) and in doses without a T/C. Other doses and runs of a compound stand elsewhere. T/C gives the treated animals as a percentage of the vehicle group. Some doses have a count of surviving animals in place of a T/C: the source files T/C as zero there, which appears to mark a toxic dose or a test without result, not a measured value. Some survivor counts are full or nearly so, which does not show that the dose was tolerated: survival well below the control is almost never listed, so the zero probably covers shortened survival too. Survivors were counted at the toxicity check, usually on the fifth day, unless a day is given; later deaths do not show. Schedules are NCI's codes, taken here to give the interval after Q, in days (D) or hours (H), and the number of doses after X. Some entries hold several experiments; the results are listed from low to high. Some schedule codes hold Z or #, which are not explained here. Where survival is the endpoint, the PubChem record calls one and a half times the control and up active, and a quarter to a half above the control has no call in these data; cut-offs in other NCI protocols can differ. Some T/C values carry the count of animals alive at the toxicity check (mostly the fifth day); where none is given, no animal had died by that day.

Test system: L1210 leukemia ip in BDF1 mice, survival T/C
Assay: NCI In Vivo Anticancer Drug Screen. Data for tumor model L1210 Leukemia (intraperitoneal) in B6D2F1 (BDF1) mice
Details: T/C endpoint: mean survival time, higher T/C = longer survival
[1] = dose: 18.7 mg/kg/injection, schedule: Q01DX001 (ip), vehicle: carboxymethylcellulose (CMC)
[2] = dose: 200.0 mg/kg/injection, schedule: Q01DX009 (ip), vehicle: saline with Tween-80
[3] = dose: 400.0 mg/kg/injection, schedule: Q04DX003 (ip), vehicle: saline with Tween-80
[4] = dose: 200.0 mg/kg/injection, schedule: Q01DX009 (ip), vehicle: Klucel (hydroxypropylcellulose) (HPC)

With `COc1cc2c(cc1OC)C(Cc1ccc(Oc3ccc(Cc4c5c(cc(OC)c4OC)CC[N+](C)(C)C5)cc3)cc1)[N+](C)(C)CC2` (configuration not stated) the survivor count (dose: 6.25 mg/kg/injection, schedule: Q04DX002 (ip), vehicle: saline with Tween-80) was 1 of 3, the survivor count (dose: 12.5 mg/kg/injection, schedule: Q04DX002 (ip), vehicle: saline with Tween-80) was 0 of 3 and the survivor count (dose: 25.0 mg/kg/injection, schedule: Q04DX002 (ip), vehicle: saline with Tween-80) was 0 of 3. For the same compound, the survivor count (dose: 100.0 mg/kg/injection, schedule: Q04DX002 (ip), vehicle: saline with Tween-80) was 0 of 3, the survivor count (dose: 200.0 mg/kg/injection, schedule: Q04DX002 (ip), vehicle: saline with Tween-80) was 0 of 3 and the survivor count (dose: 400.0 mg/kg/injection, schedule: Q04DX002 (ip), vehicle: saline with Tween-80) was 0 of 3.
For `COc1ccc(CC(N)C(=O)O)cc1N(CCCl)CCCl` (configuration not stated), the T/C (dose: 0.08 mg/kg/injection, schedule: Q01DX009 (ip), vehicle: carboxymethylcellulose (CMC)) was 135 % of control, the T/C (dose: 0.15 mg/kg/injection, schedule: Q01DX009 (ip), vehicle: carboxymethylcellulose (CMC), evaluated on day 30) was 130 % of control and the T/C (dose: 0.15 mg/kg/injection, schedule: Q01DX009 (ip), vehicle: carboxymethylcellulose (CMC), run until all animals had died) was 127 and 131 % of control. The T/C (dose: 0.3 mg/kg/injection, schedule: Q01DX009 (ip), vehicle: carboxymethylcellulose (CMC)) was 127 % of control, the T/C (dose: 0.6 mg/kg/injection, schedule: Q01DX009 (ip), vehicle: carboxymethylcellulose (CMC), evaluated on day 30) was 144 % of control and the T/C (dose: 0.6 mg/kg/injection, schedule: Q01DX009 (ip), vehicle: carboxymethylcellulose (CMC), run until all animals had died) was 138 % of control. The T/C (dose: 0.75 mg/kg/injection, schedule: Q01DX009 (ip), vehicle: carboxymethylcellulose (CMC)) was 143 % of control, the T/C (dose: 0.9 mg/kg/injection, schedule: Q01DX009 (ip), vehicle: carboxymethylcellulose (CMC)) was 129 % of control and the T/C (dose: 1.2 mg/kg/injection, schedule: Q01DX009 (ip), vehicle: carboxymethylcellulose (CMC)) was 143 % of control [5 of 6 alive]. The T/C (dose: 1.3 mg/kg/injection, schedule: Q01DX009 (ip), vehicle: carboxymethylcellulose (CMC)) was 137 and 139 % of control, the T/C (dose: 2.5 mg/kg/injection, schedule: Q01DX009 (ip), vehicle: carboxymethylcellulose (CMC)) was 134 % of control and the T/C (dose: 3.0 mg/kg/injection, schedule: Q01DX009 (ip), vehicle: carboxymethylcellulose (CMC)) was 148 % of control. The T/C (dose: 5.0 mg/kg/injection, schedule: Q01DX001 (ip), vehicle: carboxymethylcellulose (CMC)) was 135 % of control, the T/C (dose: 5.0 mg/kg/injection, schedule: Q01DX009 (ip), vehicle: carboxymethylcellulose (CMC)) was 141 % of control and the survivor count (dose: 5.3 mg/kg/injection, schedule: Q01DX009 (ip), vehicle: carboxymethylcellulose (CMC)) was 5 of 6. For the same compound, the survivor count (dose: 8.0 mg/kg/injection, schedule: Q01DX009 (ip), vehicle: carboxymethylcellulose (CMC)) was 6 of 6, the T/C (dose: 8.3 mg/kg/injection, schedule: Q01DX001 (ip), vehicle: carboxymethylcellulose (CMC)) was 131 and 144 % of control [5 of 6 alive] and the survivor count (dose: 11.0 mg/kg/injection, schedule: Q01DX009 (ip), vehicle: carboxymethylcellulose (CMC)) was 6 of 6. The survivor count (dose: 11.1 mg/kg/injection, schedule: Q01DX009 (ip), vehicle: carboxymethylcellulose (CMC)) was 5 of 6, the T/C (dose: 12.5 mg/kg/injection, schedule: Q01DX001 (ip), vehicle: carboxymethylcellulose (CMC)) was 140 % of control and the survivor count (dose: 16.0 mg/kg/injection, schedule: Q01DX009 (ip), vehicle: carboxymethylcellulose (CMC)) was 4 of 6. The survivor count (dose: 16.6 mg/kg/injection, schedule: Q01DX009 (ip), vehicle: carboxymethylcellulose (CMC)) was 1 of 6, the survivor count (dose: 18.0 mg/kg/injection, schedule: Q01DX009 (ip), vehicle: carboxymethylcellulose (CMC)) was 1 of 6 and the T/C [1] was 127 % of control. The survivor count [1] was 5 of 6, the survivor count (dose: 25.0 mg/kg/injection, schedule: Q01DX001 (ip), vehicle: carboxymethylcellulose (CMC)) was 3 of 6 and 6 of 6 and the survivor count (dose: 25.0 mg/kg/injection, schedule: Q01DX009 (ip), vehicle: carboxymethylcellulose (CMC)) was 0 of 6. For the same compound, the survivor count (dose: 37.5 mg/kg/injection, schedule: Q01DX001 (ip), vehicle: carboxymethylcellulose (CMC)) was 4 of 6, the survivor count (dose: 37.5 mg/kg/injection, schedule: Q01DX009 (ip), vehicle: carboxymethylcellulose (CMC)) was 0 of 6 and the survivor count (dose: 50.0 mg/kg/injection, schedule: Q01DX001 (ip), vehicle: carboxymethylcellulose (CMC)) was 0 of 6 and 1 of 6.
`COP(=S)(OC)N(C)C` was tested, and the survivor count (dose: 300.0 mg/kg/injection, schedule: Q01DX001 (ip), vehicle: saline) was 1 of 6.
`CCOC(=S)SCCC(=O)O` was tested, and the survivor count (dose: 50.0 mg/kg/injection, schedule: Q01DX009 (ip), vehicle: saline with Tween-80) was 5 of 6 and the survivor count [2] was 3 of 6.
In the case of `NOCc1ccc(CON)cc1`, the survivor count (dose: 400.0 mg/kg/injection, schedule: Q04DX003 (ip), vehicle: saline) is reported as 3 of 4.
For `CC/C(C)=N\NC(=O)c1cccnc1`, the survivor count (dose: 400.0 mg/kg/injection, schedule: Q01DX009 (ip), vehicle: saline) was 0 of 6.
In the case of `O=C(Nc1ccc(C2=NCCN2)cc1)C1CCC(C(=O)Nc2ccc(C3=NCCN3)cc2)CC1` (configuration not stated), the T/C (dose: 1.87 mg/kg/injection, schedule: Q01DX Z (ip), vehicle: carboxymethylcellulose (CMC)) is reported as 132 % of control, the T/C (dose: 5.6 mg/kg/injection, schedule: Q01DX015 (ip), vehicle: methylcellulose (MC)) is reported as 137 % of control and the T/C (dose: 7.5 mg/kg/injection, schedule: Q01DX Z (ip), vehicle: carboxymethylcellulose (CMC)) is reported as 135 % of control. For the same compound, the T/C (dose: 62.0 mg/kg/injection, schedule: Q01DX Z (ip), vehicle: carboxymethylcellulose (CMC)) was 142 % of control, the survivor count (dose: 250.0 mg/kg/injection, schedule: Q01DX Z (ip), vehicle: carboxymethylcellulose (CMC)) was 3 of 6 and the T/C (dose: 500.0 mg/kg/injection, schedule: Q01DX001 (ip), vehicle: methylcellulose (MC)) was 138, 150, 151, 200 % of control. For the same compound, the survivor count (dose: 500.0 mg/kg/injection, schedule: Q01DX Z (ip), vehicle: carboxymethylcellulose (CMC)) was 2 of 6 and the T/C (dose: 1000.0 mg/kg/injection, schedule: Q01DX001 (ip), vehicle: methylcellulose (MC)) was 171, 181, 213, 303 % of control.
With `CC(C)=CCNc1ncnc2nc[nH]c12` the survivor count (dose: 40.0 mg/kg/injection, schedule: Q04DX003 (ip), vehicle: saline with Tween-80) was 3 of 6, the survivor count (dose: 80.0 mg/kg/injection, schedule: Q01DX001 (ip), vehicle: saline) was 1 of 4 and the survivor count (dose: 80.0 mg/kg/injection, schedule: Q04DX003 (ip), vehicle: saline with Tween-80) was 2 of 6. The survivor count (dose: 100.0 mg/kg/injection, schedule: Q01DX001 (ip), vehicle: saline) was 2 of 4, the survivor count (dose: 200.0 mg/kg/injection, schedule: Q01DX001 (ip), vehicle: saline) was 1 of 4 and the survivor count (dose: 400.0 mg/kg/injection, schedule: Q01DX001 (ip), vehicle: saline) was 2 of 4.
With `O=Cc1cccc(CC(O)(C(F)(F)F)C(F)(F)F)n1` the survivor count (dose: 100.0 mg/kg/injection, schedule: Q01DX009 (ip), vehicle: saline with Tween-80) was 3 of 6, the survivor count [2] was 3 of 6 and the survivor count [3] was 0 of 6.
With `CC(C)=CC(=O)NC(=O)NS(=O)(=O)c1ccc(C)cc1` the survivor count [4] was 6 of 6 and the T/C (dose: 400.0 mg/kg/injection, schedule: Q04DX003 (ip), vehicle: Klucel (hydroxypropylcellulose) (HPC)) was 125 % of control.
For `CC1=NC(C#N)=C(C#N)N=C(C)C1`, the survivor count (dose: 75.0 mg/kg/injection, schedule: Q01DX009 (ip), vehicle: Klucel (hydroxypropylcellulose) (HPC)) was 0 of 6, the survivor count [4] was 0 of 6 and the survivor count (dose: 400.0 mg/kg/injection, schedule: Q01DX009 (ip), vehicle: Klucel (hydroxypropylcellulose) (HPC)) was 0 of 6.
`Cc1ccc2cccc([N+](=O)[O-])c2n1` was tested, and the survivor count [3] was 0 of 6.
In the case of `CCCCCC(CN(C)C)C(O)/C=C\c1ccccc1` (configuration not stated), the survivor count (dose: 100.0 mg/kg/injection, schedule: Q04DX003 (sc), vehicle: steroid suspending solution) is reported as 6 of 6, the survivor count (dose: 200.0 mg/kg/injection, schedule: Q04DX003 (sc), vehicle: steroid suspending solution) is reported as 6 of 6 and the survivor count (dose: 400.0 mg/kg/injection, schedule: Q04DX003 (sc), vehicle: steroid suspending solution) is reported as 4 of 6.
